Values from PubChem BioAssay AID1259258 (Sanger Institute, 2017).
Here is one part, drawn at random, of 160 reagents. 40 of all reagents (25%) were called active. 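Each row is one of four siRNAs per gene; a gene counts as confirmed only when several of its siRNAs show synergy.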 Unmarked entries are inactive. The numbers tell different reagents against one gene apart. Not all columns of the deposit are shown. Not given: the amount of reagent, the time to read-out.

Aim: 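Kinase knock-downs making colon cancer cells more sensitive to BYL719, cetuximab or trametinib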 (follow-up of hits)
Cells: human SW48 colorectal cancer cells
Reagents: single siRNA against human genes
Conditions: anchor drug cetuximab 5 µg/ml, trametinib 10 nM or BYL719 1 µM, or DMSO vehicle alone; assay length not stated
Detection: 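Cell viability after siRNA plus DMSO, cetuximab 5 µg/ml, trametinib 10 nM or BYL719 1 µM, scaled to non-targeting pool 2 and replicate-averaged; synergy score weighs combined against single effects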
Direction: synergy score with trametinib and synergy score with BYL719 and synergy score with cetuximab: higher = stronger synergy, more killing than expected
Hit rule: 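Any one of the three anchor drugs giving a synergy value over 0.10 makes the siRNA a hit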

gene | reagent | synergy score with trametinib | synergy score with BYL719 | synergy score with cetuximab
GTF2H1 | 1 | -0.164 | -0.0602 | -0.0374
GTF2H1 | 2 | -0.228 | -0.111 | -0.0453
GTF2H1 | 3 | -0.351 | -0.264 | -0.198
GTF2H1 | 4 | -0.0309 | -0.134 | -0.274
MAPKAPK2 | 1 | -0.0648 | -0.014 | -0.0132
MAPKAPK2 | 2 | -0.215 | -0.154 | -0.125
MAPKAPK2 | 3 | -0.279 | -0.00158 | -0.0791
MAPKAPK2 | 4 | -0.14 | -0.00606 | -0.0875
BMPR2 | 1 | -0.225 | -0.095 | -0.273
BMPR2 | 2 | -0.00215 | -0.0711 | -0.0439
BMPR2 | 3 | -0.202 | -0.206 | -0.274
BMPR2 | 4 | -0.364 | -0.207 | -0.239

A run of entries of the results above:
gene | reagent | synergy score with trametinib | synergy score with BYL719 | synergy score with cetuximab
GTF2H1 | 2 | -0.228 | -0.111 | -0.0453
GTF2H1 | 3 | -0.351 | -0.264 | -0.198
GTF2H1 | 4 | -0.0309 | -0.134 | -0.274

Additional results:
gene | reagent | synergy score with trametinib | synergy score with BYL719 | synergy score with cetuximab
HSPB8 | 1 | 0.235 (active) | 0.116 | 0.0273
HSPB8 | 2 | -0.0849 | -0.131 | -0.118
HSPB8 | 3 | -0.00543 | -0.121 | -0.207
HSPB8 | 4 | 0.0894 | -0.0382 | -0.041
MAP3K8 | 1 | -0.111 | -0.0349 | -0.259
MAP3K8 | 2 | 0.0336 | 0 | 0.0279
MAP3K8 | 3 | -0.0666 | -0.142 | -0.129
MAP3K8 | 4 | -0.142 | -0.0382 | -0.0171
